Reference: article PMC7498314

Columns and labels:
DMC1 + MCPH1 (tag-free) = assay: Benzonase protection; details: MCPH1 stabilizes DMC1-ssDNA filament (less than RAD51); TPM: 100 mM KCl (150 mM high salt); recombinant protein; label: 5'-32P; single-stranded DNA
RAD51 + MCPH1 (tag-free) = assay: Benzonase protection; details: MCPH1 stabilizes RAD51-ssDNA filament; TPM: 100 mM KCl (150 mM high salt); recombinant protein; label: 5'-32P; single-stranded DNA

“TTATGTTCATTTTTTATATCCTTTACTTTATTTTCTCTGTTTATTCATTTACTTATTTTGTATTATCCTTATCTTATTTA [Oligo 1 80-mer ssDNA]”: binds (DMC1 + MCPH1 (tag-free)); binds (RAD51 + MCPH1 (tag-free)).

For at least one entry, the source does not settle the construct or the ends of the probe. At least one verdict rests on a figure or table, not on a statement of the authors.
